Measurements reported in PMC4800795.
Results are given in words; binding and its absence hold for the method and conditions named. Binding seen in cells or lysates may run through a third protein. A yes stands for co-enrichment or nearness to the bait. Other partners may have been found.

Sequences of proteins named here, by UniProt entry; tags and fusion partners are left off.
UniProt Q9UNN5: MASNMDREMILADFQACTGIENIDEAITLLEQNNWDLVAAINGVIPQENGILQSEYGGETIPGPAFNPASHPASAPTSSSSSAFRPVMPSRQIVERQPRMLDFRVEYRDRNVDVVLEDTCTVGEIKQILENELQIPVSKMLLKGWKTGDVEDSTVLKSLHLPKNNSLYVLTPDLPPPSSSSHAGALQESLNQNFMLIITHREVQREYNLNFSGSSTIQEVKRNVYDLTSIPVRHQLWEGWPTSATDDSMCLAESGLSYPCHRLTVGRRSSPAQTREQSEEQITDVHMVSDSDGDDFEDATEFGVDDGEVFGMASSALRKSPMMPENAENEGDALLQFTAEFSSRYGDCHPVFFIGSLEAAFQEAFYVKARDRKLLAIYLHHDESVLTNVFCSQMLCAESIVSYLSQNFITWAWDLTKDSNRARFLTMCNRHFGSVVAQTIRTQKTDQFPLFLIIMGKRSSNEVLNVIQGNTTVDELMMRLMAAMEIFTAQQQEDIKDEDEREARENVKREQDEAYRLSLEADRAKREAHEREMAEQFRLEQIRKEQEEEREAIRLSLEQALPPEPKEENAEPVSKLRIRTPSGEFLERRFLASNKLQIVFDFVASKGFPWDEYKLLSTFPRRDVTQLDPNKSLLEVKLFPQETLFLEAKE
UniProt O00410: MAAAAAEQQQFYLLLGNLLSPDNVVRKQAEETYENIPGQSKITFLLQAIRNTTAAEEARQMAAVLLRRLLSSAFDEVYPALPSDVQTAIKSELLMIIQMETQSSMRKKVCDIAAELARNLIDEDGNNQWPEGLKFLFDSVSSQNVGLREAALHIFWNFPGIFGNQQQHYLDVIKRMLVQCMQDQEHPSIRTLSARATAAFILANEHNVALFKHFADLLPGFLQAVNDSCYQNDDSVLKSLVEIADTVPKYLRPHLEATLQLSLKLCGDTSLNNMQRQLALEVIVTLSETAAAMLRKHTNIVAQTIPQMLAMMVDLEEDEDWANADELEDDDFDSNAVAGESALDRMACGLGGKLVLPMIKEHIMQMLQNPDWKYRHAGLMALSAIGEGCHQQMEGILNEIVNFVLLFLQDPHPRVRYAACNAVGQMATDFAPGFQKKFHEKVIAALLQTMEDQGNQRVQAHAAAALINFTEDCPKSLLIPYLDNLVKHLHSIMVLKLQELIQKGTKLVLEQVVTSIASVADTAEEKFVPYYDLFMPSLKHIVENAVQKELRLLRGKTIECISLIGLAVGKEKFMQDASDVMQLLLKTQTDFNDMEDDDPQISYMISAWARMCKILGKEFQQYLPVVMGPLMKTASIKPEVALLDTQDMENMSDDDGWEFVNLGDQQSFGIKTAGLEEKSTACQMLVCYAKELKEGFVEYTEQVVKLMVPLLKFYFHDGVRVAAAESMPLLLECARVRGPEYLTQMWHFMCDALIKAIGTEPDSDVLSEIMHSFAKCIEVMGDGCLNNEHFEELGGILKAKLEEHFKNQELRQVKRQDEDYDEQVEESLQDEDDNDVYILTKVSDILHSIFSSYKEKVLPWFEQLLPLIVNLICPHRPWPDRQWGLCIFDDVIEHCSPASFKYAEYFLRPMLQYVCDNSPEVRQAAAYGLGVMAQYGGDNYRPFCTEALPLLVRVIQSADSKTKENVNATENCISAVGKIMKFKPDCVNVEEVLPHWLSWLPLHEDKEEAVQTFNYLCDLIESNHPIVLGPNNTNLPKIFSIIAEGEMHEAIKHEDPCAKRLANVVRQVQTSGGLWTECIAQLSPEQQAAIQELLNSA

Molecular target: Flag-FAF1 (Fas-associated factor 1, wild type), in HeLa cells (human) (UniProt Q9UNN5)
Assay: affinity purification with mass spectrometry; anti-Flag immunoprecipitation from HeLa cells overexpressing Flag-FAF1; SDS-PAGE, silver staining; nano-UPLC-ESI-q-TOF tandem MS

**Q.** For “IPO5/importin-β3, endogenous in HeLa cells (from UniProt O00410 1-1097)”, which binding is on record?
**A.** binds
